Laboratory results: PubChem BioAssay AID1259331 (Drosophila RNAi Screening Center, 2017)
This is an unselected part of about 3,100 reagents. Of all reagents, 126 (4.1%) were called active. 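Calls are per reagent; zinc was so toxic that few knock-downs lowered ATP further, so most hits raise ATP.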 The raw values are shown without normalisation. A plus sign joins genes that one reagent is predicted to hit. Not given: the amount of reagent.

Assay: 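Genes whose knock-down changes cell survival under toxic zinc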 (primary screen)
Cells: Drosophila S2R+ cells
Knock-down reagent: long dsRNA against Drosophila genes
Timing: 5 days (4 days knock-down, then 1 day zinc)
Conditions: zinc chloride at 15 mM final level for 1 day
Measurement: 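Total cellular ATP measured by luciferase luminescence as a viability proxy, turned into Z scores from three plate copies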
Direction: mean Z score: higher = more ATP than other wells, better survival under zinc; ATP luminescence: higher = more ATP, more viable cells
Active means: 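Hit when the absolute Z score is greater than 1.5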
Meaning of the calls: active = hit, ATP up or down; inactive = not a hit

| Target gene | DRSC id | mean Z score | ATP luminescence, replicate 1 | ATP luminescence, replicate 2 | Call |
| --- | --- | --- | --- | --- | --- |
| Ac78C (Adenylyl cyclase 78C) | DRSC11602 | -0.162 | 71934 | 59466 | inactive |
| Ac78C (Adenylyl cyclase 78C) | DRSC11619 | -0.515 | 39113 | 43262 | inactive |
| Spase25 (Spase 25-subunit) | DRSC19776 | -0.277 | 42954 | 41908 | inactive |
| Spase25 (Spase 25-subunit) | DRSC39745 | -0.24 | 61112 | 61747 | inactive |
| Sb (Stubble) | DRSC16851 | 0.315 | 34019 | 66095 | inactive |
| Sb (Stubble) | DRSC29250 | 0.187 | 63462 | 65091 | inactive |
| PIG-U (Phosphatidylinositol glycan anchor biosynthesis class U) | DRSC02193 | -0.249 | 49415 | 56208 | inactive |
| PIG-U (Phosphatidylinositol glycan anchor biosynthesis class U) | DRSC28900 | -0.305 | 58128 | 55217 | inactive |
| Or88a (Odorant receptor 88a) | DRSC16770 | -0.198 | 38548 | 54699 | inactive |
| Or88a (Odorant receptor 88a) | DRSC39423 | -0.225 | 48999 | 45097 | inactive |
| Ser (Serrate) | DRSC16856 | 0.524 | 71591 | 77945 | inactive |
| Ser (Serrate) | DRSC25494 | -0.637 | 34159 | 52572 | inactive |
| PlexB (Plexin B) | DRSC17177 | 0.582 | 74712 | 76719 | inactive |
| Zip88E (Zinc/iron regulated transporter-related protein 88E) | DRSC15562 | -0.17 | 35318 | 58421 | inactive |
| Zip88E (Zinc/iron regulated transporter-related protein 88E) | DRSC25826 | 0.0359 | 56499 | 57219 | inactive |
| Gr97a (Gustatory receptor 97a) | DRSC13802 | -0.0155 | 76479 | 61524 | inactive |
| KaiR1D (Kainate-type ionotropic glutamate receptor subunit 1D) | DRSC15516 | -0.195 | 33679 | 47874 | inactive |
| VhaM9.7-c (Vacuolar H[+] ATPase M9.7 subunit c) | DRSC08204 | -0.156 | 33299 | 28184 | inactive |
| VhaM9.7-c (Vacuolar H[+] ATPase M9.7 subunit c) | DRSC30083 | -0.0753 | 46366 | 46914 | inactive |
| CG34433 | DRSC15077 | 0.0406 | 65852 | 67612 | inactive |
| Tsp42Ek (Tetraspanin 42Ek) | DRSC06187 | -0.555 | 77581 | 60534 | inactive |
| Tsp42Ek (Tetraspanin 42Ek) | DRSC39861 | -0.323 | 48509 | 57631 | inactive |
| CR32011 + CR32009 + PlexB + 1 more | DRSC21664 | 0.141 | 49315 | 50378 | inactive |
| CR32011 + CR32009 + PlexB + 1 more | DRSC26099 | -0.338 | 50429 | 51269 | inactive |
| Tmtc2 (Transmembrane O-mannosyltransferase targeting cadherins 2) | DRSC24987 | 0.218 | 55951 | 73717 | inactive |
| SecCl (Secretory chloride channel) | DRSC10887 | -0.0706 | 78499 | 62163 | inactive |
| SecCl (Secretory chloride channel) | DRSC39894 | -1.04 | 32807 | 47025 | inactive |
| rg (rugose) | DRSC17726 | -0.581 | 39214 | 38033 | inactive |
| rg (rugose) | DRSC18049 | 0.52 | 74592 | 74747 | inactive |
| rg (rugose) | DRSC29144 | -0.279 | 49263 | 65056 | inactive |
| rg (rugose) | DRSC36613 | 0.0681 | 50618 | 48612 | inactive |
| rg (rugose) | DRSC36614 | -0.194 | 41102 | 52775 | inactive |
| CG30008 | DRSC21576 | -0.0882 | 45562 | 44271 | inactive |
| CG30008 | DRSC27726 | 2.42 | 1.45e5 | 59582 | active |
| CG11262 | DRSC09831 | -0.0719 | 73546 | 62587 | inactive |
| CG11262 | DRSC39465 | 0.593 | 60529 | 59037 | inactive |
| out (outsiders) | DRSC19347 | -0.479 | 40331 | 41685 | inactive |
| out (outsiders) | DRSC28913 | 0.0921 | 63136 | 62484 | inactive |
| E23 (Early gene at 23) | DRSC00593 | 0.129 | 53687 | 39868 | inactive |
| E23 (Early gene at 23) | DRSC25491 | -0.314 | 53824 | 46194 | inactive |
| Irk3 (Inwardly rectifying potassium channel 3) | DRSC02047 | 0.244 | 55316 | 42131 | inactive |
| vir (virilizer) | DRSC04377 | 0.107 | 52384 | 54099 | inactive |
| vir (virilizer) | DRSC26525 | 0.127 | 61249 | 57974 | inactive |
| Ir67b (Ionotropic receptor 67b) | DRSC09876 | -0.298 | 69594 | 60872 | inactive |
| CG13995 | DRSC22767 | 0.684 | 55684 | 58386 | inactive |
| CG13995 | DRSC28023 | 1.48 | 83734 | 77782 | inactive |
| ninaA (neither inactivation nor afterpotential A) | DRSC00830 | -0.421 | 44480 | 56431 | inactive |
| CG34030 | DRSC08866 | -0.0766 | 38833 | 42349 | inactive |
| sll (slalom) | DRSC16271 | 0.531 | 48817 | 54133 | inactive |
| sll (slalom) | DRSC29864 | 0.272 | 50995 | 51218 | inactive |
| CG6836 | DRSC10722 | -0.529 | 27285 | 29050 | inactive |
| CG6836 | DRSC26906 | -0.103 | 61232 | 53618 | inactive |
| CG1317 | DRSC08305 | -0.503 | 27473 | 28056 | inactive |
| CG1317 | DRSC39565 | 0.237 | 64473 | 59790 | inactive |
| cni (cornichon) | DRSC03512 | -0.144 | 43691 | 34401 | inactive |
| ppk25 (pickpocket 25) | DRSC04973 | -0.506 | 87007 | 64051 | inactive |
| ppk25 (pickpocket 25) | DRSC27513 | 0.0532 | 50515 | 61181 | inactive |
| CG9981 | DRSC20225 | 0.19 | 70956 | 67406 | inactive |
| Remo (Remoulade) | DRSC19710 | 0.528 | 73666 | 75970 | inactive |
| Gr22f (Gustatory receptor 22f) | DRSC00076 | -0.412 | 38660 | 36165 | inactive |
| Gr22f (Gustatory receptor 22f) | DRSC26841 | 0.151 | 62665 | 58248 | inactive |
| CG3149 | DRSC17732 | 0.0401 | 47406 | 44462 | inactive |
| CG3149 | DRSC27511 | 0.311 | 68778 | 61123 | inactive |
| CG4459 | DRSC15582 | -0.0288 | 35873 | 59654 | inactive |
| Cralbp + PGRP-LD + Pmi | DRSC09743 | 3 | 1.40e5 | 1.05e5 | active |
| PGRP-SB2 (Peptidoglycan recognition protein SB2) | DRSC11092 | -0.0433 | 38599 | 47514 | inactive |
| Fas3 (Fasciclin 3) | DRSC03326 | -0.336 | 56979 | 57548 | inactive |
| Fas3 (Fasciclin 3) | DRSC22776 | -0.0937 | 48989 | 43211 | inactive |
| Fas3 (Fasciclin 3) | DRSC28665 | -0.411 | 44754 | 65537 | inactive |

Single entries from the list.
rg (rugose) [DRSC17726], mean Z score = -0.581
CR32011 + CR32009 + PlexB + 1 more [DRSC26099], ATP luminescence, replicate 2 = 51269
Entry for out (outsiders) [DRSC28913] under “ATP luminescence, replicate 1”: 63136
Result of Fas3 (Fasciclin 3) [DRSC22776] in “ATP luminescence, replicate 1”: 48989
For “ATP luminescence, replicate 2”, Gr97a (Gustatory receptor 97a) [DRSC13802] is entered as 61524
CG1317 [DRSC08305], ATP luminescence, replicate 2 → 28056
